# Taken from: PubChem BioAssay AID743454 (Peter MacCallum Cancer Centre, 2014)
# Purpose: 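Knock-downs lowering viability or raising caspase 3/7 activity in vorinostat-treated resistant cells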 (primary screen)
# Cells: human HCT116-VR colon cancer cells, selected for vorinostat resistance
# Reagents: siRNA pool against human genes, 40 nM siRNA pool
# Duration: vorinostat for 24 h, read-out about 72 h after transfection
# Treatment: vorinostat at 2.5 µM final
# Measurement: 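Two measures, CellTiter-Fluor viability and luminescent caspase 3/7 activity, each as fold change against same-plate mock wells, mean of duplicates, then screen-wide robust z-score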
# Scale: viability robust z-score: higher = more viable cells than screen typical; caspase robust z-score: higher = more caspase 3/7 activity than screen typical
# Rule for the call: 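Hits are knock-downs in viability class RV1/RV2 or caspase class CA1/CA2, excluding ones that killed cells in the no-drug cell-count arm; hits then retested with single siRNAs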
# This is one part, drawn at random, of about 18,000 reagents. Of all reagents, 450 (2.5%) were called active. 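Single biological run; no consistent viability z cut-off exists, so the class columns, not z-scores, define the calls.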 A number with no mark means an inactive call. No sequences are given here.
target,viability hit class,caspase hit class,viability robust z-score,caspase robust z-score
ALX4,no change,no change,-0.89,2.94
LCE3B,no change,no change,-0.08,-0.69
ZNF263,no change,no change,0.98,-0.18
PTGES3,no change,no change,-0.3,0.81
CLCN3,no change,no change,-0.28,-0.87
GARIN1A,no change,no change,-0.14,-0.65
GEMIN8,no change,no change,-0.26,-0.62
KRT85,no change,no change,0.24,-0.7
RPP25,no change,no change,-0.57,0.5
GZMH,no change,no change,-0.18,0.52
SYTL5,no change,no change,-0.46,1.32
FCGBP,no change,no change,0.45,-0.13
CARMIL3,no change,no change,-0.94,0.78
NPY1R,no change,no change,0.42,-0.4
RPS19BP1,no change,no change,-1.25,0.23
OR52H1,no change,no change,-0.24,-0.52
SLC29A1,no change,no change,-3.46,0.82
CFAP298,no change,no change,1.48,0.56
PSMA7,no change (active),CA2 (caspase activation),-4.21,7.52
MEDAG,no change,no change,-2.42,1
CD5L,no change,no change,0.37,-0.04
ZNF41,no change,no change,-0.4,-0.34
ZNF276,no change,no change,0.11,2.4
ELOVL1,no change,no change,-0.96,2.56
CEP43,no change,no change,1.17,-0.89
DCUN1D3,no change,no change,-0.29,2.62
CFAP141,no change,no change,-0.45,-0.88
NVL,no change,no change,-1.4,-1.28
DGUOK,no change,no change,-1.25,-1.14
ARMCX5,no change,no change,-0.48,-0.99
H4C3,no change,no change,-0.97,1.44
TMEM132E,no change,no change,0.22,-0.36
VPS9D1,no change,no change,0.34,-0.97
DCK,no change,no change,-3.12,0.5
NDUFA11,no change,no change,0.32,1.19
PLCZ1,no change,no change,-0.13,0.8
ZBTB2,no change (active),CA2 (caspase activation),-3.77,5.99
SAMD9L,no change,no change,-0.71,-0.16
CCM2,no change,no change,0.53,2.27
TAS2R50,no change,no change,1.04,-0.4
CNOT6,no change,no change,-1.6,1.06
DNAI3,no change,no change,0.58,-0.38
PAG1,no change,no change,-0.11,-0.15
FCN1,no change,no change,1.08,-0.7
GHITM,no change,no change,0.8,0.05
THUMPD2,no change,no change,0.52,3.01
SQLE,no change,no change,0.24,-0.2
PGCKA1,no change,no change,0.75,-1.13
IGFN1,no change,no change,-0.66,1.79
SF3B1,no change,no change,-4.85,0.43
URI1,no change,no change,-0.52,0.15
LRIF1,no change,no change,-0.05,-0.02
SULF2,no change,no change,-0.68,-0.76
TEX56P,no change,no change,0.06,-0.66
CSTL1,no change,no change,0.74,-1.06
C8orf82,no change,no change,1.14,-0.55
MFSD11,no change,no change,-0.12,-0.02
NPEPL1,RV2 (reduced viability) (active),no change,-3.25,-1.23
GSTK1,no change,no change,0.78,-0.7
VDR,no change,no change,0.26,2.26
BMP5,no change,no change,1.16,0.24
AMY1C,no change,no change,0.92,-0.56
ARPIN,no change,no change,-2.25,2.36
CARMIL1,no change,no change,-0.32,1.01
PAGE2B,no change,no change,-0.22,-0.48
KLHL7,no change,no change,0.12,0.32
RTTN,no change,no change,0.14,-1.01
SPAG16,no change,no change,-0.22,2.62
MLYCD,no change,no change,-0.82,-0.86
TMEM198,no change,no change,0.38,0.78
CRH,no change,no change,1.38,-0.16
CUTC,no change,no change,0.5,-1.23
YDJC,no change,no change,0.56,0.29

Called active, among the entries above:
target,viability hit class,caspase hit class,viability robust z-score,caspase robust z-score
PSMA7,no change (active),CA2 (caspase activation),-4.21,7.52
ZBTB2,no change (active),CA2 (caspase activation),-3.77,5.99
NPEPL1,RV2 (reduced viability) (active),no change,-3.25,-1.23
